“And” between values parts separate entries of the source, which are not always exact repeats. Equal entries are not always repeated. Hit rate of the full screen: of about 59,000 compounds, about 6,500 (11%) were called active. The inconclusive results got no clear call from the source; some entries with a clear call stand among them for comparison. Rule as the data show it: active = max dye-equivalent concentration above about 10 nM; inconclusive = mostly about 1.1 nM to 9.6 nM; inactive = weaker than that. A structure can be active in one record and inactive in another.
experiment: qHTS Assay for Spectroscopic Profiling in A350 Spectral Region; conditions: Compound autofluorescence, 340/450 nm, Alexa 350 dye-equivalents; active compounds read high

SMILES | max dye-equivalent concentration | outcome
COc1ccc(C(=O)Cn2c(N3CCCCC3)nc3c2c(=O)n(C)c(=O)n3C)cc1OC | inconclusive: 1.9e-09 M | 
CCN(CC)CCOC(=O)[C@@H](Cc1cccc2ccccc12)C[C@@H]1CCCO1 | inactive | 
CC(C)N1C[C@@]23C=C[C@@H](O2)C(C(=O)OCc2ccccc2)[C@H]3C1=O (stereo partly specified) | active: 4.6e-08 M | 
N#Cc1c(NCCN)nc(NCc2ccccc2)c2c1CCN(Cc1ccccc1)C2 | active: 4.3e-08 M | 
NS(=O)(=O)c1ccc(N=Nc2ncccc2O)cc1 | inconclusive: 2e-09 M | 
Cc1cc(NC(=O)CSc2nnnn2C2CCCC2)no1 | inconclusive: 1.1e-09 M | 
CCOC(=O)CSc1nnc([C@H](Cc2ccccc2)NC(=O)OC(C)(C)C)o1 | inconclusive: 1.3e-09 M | 
N#Cc1ccc(CN2CC[C@@]3(CCCN(C(=O)c4ccco4)C3)C2)cc1 | inactive | 
COCCNC(=O)CSc1nc2ccccc2c(=O)n1CCCC(=O)NCc1ccccc1 | inconclusive: 3.5e-09 M | 
CCOc1nc(-c2ccccc2)ccc1-c1noc(-c2ccc(OC)c(OC)c2)n1 | inconclusive: 2.7e-09 M | 
CN(C(=O)c1ccno1)c1nnc(-c2cccnc2)s1 | inactive | 
CC1=C(C(=O)NCc2ccccc2)C(c2ccccc2OCC(N)=O)NC(=O)N1 (stereo unspecified) | active: 5.9e-08 M | 
COc1ccccc1NC(=O)C(C)NS(=O)(=O)c1ccc(Cl)cc1 (stereo unspecified) | inactive | 
COC(=O)c1cc(Br)c(=O)n(CC(C)C)c1 | inconclusive: 3.4e-09 M | 
COc1ccc(-c2nc3cnc(OC)nc3n(C[C@H]3CCCO3)c2=O)cc1 | active: 3.6e-08 M | 
C=C[C@]1(C)C[C@H](OC(=O)CO)[C@]2(C)C3C(=O)CC[C@]3(CC[C@H]2C)[C@H](C)[C@H]1O (stereo partly specified) | inactive | 
OCc1cc(CO)c(O)c(CCc2ccccc2)n1 | inconclusive: 5.1e-09 M | 
CC(C)NCC(O)Cn1c2c(c3ccccc31)CCc1c-2cnn1-c1ccccc1 (stereo unspecified) | active: 2.8e-08 M | 
CCc1c(C)nc2cc(-c3cc(OC)cc(OC)c3)nn2c1N1CCCC1 | active: 1.9e-08 M | 
CCCCOc1ccc(C(C)(O)CCN2CCOCC2)cc1 (stereo unspecified) | inactive | 
N#Cc1nc(COc2ccccc2F)oc1NCCc1ccccc1 | inconclusive: 1.5e-09 M | 
O=C(Nc1ccc(N2CCCC2=O)cc1)c1cccc(F)c1 | inactive | 
Cc1ccc(C(=O)CSc2nnc(-c3cccnc3)n2N)cc1 | inactive | 

Sorted by formula weight (smallest number first): some entries from above
SMILES | max dye-equivalent concentration | outcome
CCCCOc1ccc(C(C)(O)CCN2CCOCC2)cc1 (stereo unspecified) | inactive | 
CC(C)N1C[C@@]23C=C[C@@H](O2)C(C(=O)OCc2ccccc2)[C@H]3C1=O (stereo partly specified) | active: 4.6e-08 M | 
CCOc1nc(-c2ccccc2)ccc1-c1noc(-c2ccc(OC)c(OC)c2)n1 | inconclusive: 2.7e-09 M | 
N#Cc1c(NCCN)nc(NCc2ccccc2)c2c1CCN(Cc1ccccc1)C2 | active: 4.3e-08 M | 

Reprinted from the results shown for reference:
SMILES | max dye-equivalent concentration | outcome
OCc1cc(CO)c(O)c(CCc2ccccc2)n1 | inconclusive: 5.1e-09 M | 
CC(C)NCC(O)Cn1c2c(c3ccccc31)CCc1c-2cnn1-c1ccccc1 (stereo unspecified) | active: 2.8e-08 M | 

The list goes on.

SMILES | max dye-equivalent concentration | outcome
COc1cccc(-c2nnc(SCC(=O)Nc3ccc(OC)c(OC)c3)n2N)c1 | active: 9.8e-08 M | 
COc1ccccc1-c1ccc2ncnc(N3CCOCC3)c2c1 | inactive | 
Cc1ccc(C(=O)NCCN(C)C)c(C)c1 | inactive | 
CS(=O)(=O)N(CCc1ccccc1)CC(=O)N1CCN(c2ccccc2)CC1 | inconclusive: 1.1e-09 M | 
CC1(C)CC(=O)C2=C(C1)NC(=O)CC2c1cccc(F)c1 (stereo unspecified) | active: 2.5e-08 M | 
CCOC(=O)N1CCN(C(=O)c2ccc3c(=O)n(CCC4=CCCCC4)c(=O)[nH]c3c2)CC1 | inconclusive: 2.9e-09 M | 
Cc1cc(C)n2nc(CC(=O)NC3CCCC(C)C3C)nc2n1 (stereo unspecified) | inconclusive: 1.5e-09 M | 
Nc1c(C(=O)NC2CCCC2)c2nc3ccccc3nc2n1/N=C/c1cccnc1 | active: 2.2e-08 M | 
O=C(O)Cc1ccc(-c2ccccc2)cc1 | active: 4.7e-08 M | 
Clc1ccccc1-c1ccc2ncnc(NC3CCNCC3)c2c1 | inactive | 
Cc1cc(Br)ccc1OCc1nc(-c2cccnc2)no1 | inconclusive: 2.9e-09 M | 
Cc1nnc2sc(-c3ccc(NC(=O)CSc4ccc(Cl)cc4)cc3)nn12 | inconclusive: 7.1e-09 M | 
CC(=O)NC(Cc1ccc(C)cc1)C(=O)NC1CCN(C(=O)c2cnccn2)CC1 (stereo unspecified) | inconclusive: 2.6e-09 M | 
C[C@@H]1C[C@H]2[C@@H]3C[C@H](F)C4=CC(=O)C=C[C@]4(C)[C@@]3(F)[C@@H](O)C[C@]2(C)[C@@]1(O)C(=O)CO | inconclusive: 1.6e-09 M | 
CC1(C)CC(=O)C(/C=N/c2ncccc2C(=O)O)=C(O)C1 | inconclusive: 4.8e-09 M | 
CCN(CC)CCCN(Cc1cc2cc3c(cc2[nH]c1=O)OCO3)C(=O)Nc1ccccc1OC | active: 1.9e-07 M | 
COc1ccc(CCCc2nnc(SCC(=O)Nc3ncc(C)s3)o2)cc1 | active: 2.7e-08 M | 
CC(=O)c1oc2ccccc2c1N | active: 1.3e-08 M | 
Cc1cccc(N(CC(=O)NC2CCCCC2)C(=O)CCC(=O)Nc2cc(C)ccn2)c1 | inactive | 
CCOC(=O)c1ccc(NC(=O)CSc2nnc(-c3cccs3)n2CC)cc1 | inactive | 
O=c1c(-c2cccs2)nc2cnc(N3CCOCC3)nc2n1Cc1ccc(F)cc1 | inconclusive: 1.3e-09 M | 
COc1ccc(C(c2nnnn2C2CCCCC2)N2CCN(c3ccccc3F)CC2)cc1 (stereo unspecified) | inconclusive: 5.1e-09 M | 
CCOc1ccc2[nH]c(=O)c(CN(Cc3ccco3)C(CC)c3nnnn3Cc3ccccc3)cc2c1 (stereo unspecified) | active: 6.1e-08 M | 

SMILES | max dye-equivalent concentration | outcome
CCCCOC(=O)Nc1ccc(OC)cc1S(=O)(=O)N1CCOCC1 | inconclusive: 2.6e-09 M | 
CC(C)(C)C1=C(C#N)C(c2ccc3c(c2)OCO3)C(C#N)=C(N)O1 (stereo unspecified) | inconclusive: 3.8e-09 M | 
Cc1noc(NS(=O)(=O)c2ccc(NC(=O)CSc3n[nH]c(-c4ccccc4)n3)cc2)c1C | inconclusive: 1.6e-09 M | 
CCCCN(CC)S(=O)(=O)N1CCC(C(=O)NCc2ccc(F)cc2)CC1 | inactive | 
Cc1ccc(C)n1Cc1ccc(C(=O)O)cc1 | inconclusive: 6.8e-09 M | 
COc1ccc(NC(=O)CSc2nc3ccccc3c(=O)n2CCNC(C)=O)c(OC)c1 | inconclusive: 1.2e-09 M | 
COc1ccc(CSc2nnc(C)n2N)cc1 | inconclusive: 2.3e-09 M | 
C[C@@H](C[N+](C)(C)C)OC(N)=O | inactive | 
CC(C)CCOc1ccc(C(=O)CCNC(C)C(=O)O)cc1 (stereo unspecified) | inactive | 
CC(C)C(=O)Nc1ccc(NC(=O)c2ccccn2)cn1 | inconclusive: 1.4e-09 M | 
C=CCn1c(SCCCCCC)nc(O)cc1=O | inconclusive: 1.8e-09 M | 
Cc1cc(C)n(-c2nc3c(c(=O)n(C)c(=O)n3C)n2C)n1 | inconclusive: 3.4e-09 M | 
O=S(=O)(c1ccc2c(c1)OCCO2)N(Cc1ccc(F)cc1)Cc1nnc(-c2cccs2)o1 | inconclusive: 1.3e-09 M | 
C#CCOCCCC(=O)O | inconclusive: 3.6e-09 M | 
COc1ccc2c(c1)N(C[C@@H](C)CN(C)C)c1ccccc1S2 | active: 2.7e-08 M | 
CCOC(=O)c1sc(NC(=O)c2cccs2)cc1C | active: 4.3e-07 M | 
O=C(c1ccco1)N1CCN(C(c2ccc(Cl)cc2)c2nnnn2CC2CCCO2)CC1 (stereo unspecified) | inconclusive: 1.3e-09 M | 
O=C(CNC(=O)c1ccco1)Nc1cc(Cl)ccc1N1CCOCC1 | inconclusive: 1.1e-09 M | 
CCOC(=O)c1[nH]nc2c1C(=O)N(CC)C2=O | inconclusive: 1.9e-09 M | 
CN1/C(=C/C=N/n2cnnc2)C(C)(C)c2ccccc21 | active: 7.3e-08 M | 
CCOC(=O)CNC(=O)CSc1ncnc2c1cnn2-c1ccc(Cl)cc1 | inactive | 
CN(C)c1ncc2nc(-c3ccc(Cl)cc3)c(=O)n(C)c2n1 | active: 2.4e-08 M | 
CCOC(=O)C1C(=O)OC2(CCCC2)C1C(=O)OCC (stereo unspecified) | inconclusive: 1.3e-09 M | 

SMILES | max dye-equivalent concentration | outcome
CS(=O)(=O)N1CCC2(CCCN(Cc3ccc(C#N)cc3)C2)CC1 | inactive | 
Clc1ccc(C2=Nn3c(nnc3-c3cccnc3)SC2)s1 | inactive | 
Cc1nn2c(=O)nc3sc4c(c3c2[nH]c1=O)CCCC4 | inconclusive: 1.1e-09 M | 
O=c1cc(CN2CCN(CCO)CC2)c2cc3c(cc2o1)CCC3 | inconclusive: 8.6e-09 M | 
O=c1[nH]c2cc3c(cc2cc1CN(Cc1cccs1)Cc1nnnn1Cc1ccco1)OCCO3 | active: 1.1e-07 M | 
CC(C)(C)n1nc2c(c1NC(=O)c1cccc(C(F)(F)F)c1)CS(=O)C2 (stereo unspecified) | inactive | 
CC1CCCC(NC(=O)CC2Nc3ccccc3NC2=O)C1C (stereo unspecified) | active: 2.1e-08 M | 
C=CCc1cccc2cc(C(=O)N3CCN(C(=O)c4ccco4)CC3)c(=O)oc12 | inconclusive: 2.6e-09 M | 
O=c1c(-c2ccc(Cl)cc2)nc2cnc(Oc3ccccc3)nc2n1C1CC1 | inconclusive: 3.8e-09 M | 
CCC(=O)N(CCO)Cc1cc2ccc(C)c(C)c2[nH]c1=O | inconclusive: 3e-09 M | 
COc1c2c(nc3occc13)C(CCC(C)(C)O)(OC)C(O)CC2 (stereo unspecified) | inactive | 
Cc1cc(Cl)c(S(=O)(=O)NCC2CCCO2)cc1OCC(N)=O (stereo unspecified) | inactive | 
O=C1C=C(NCC2CCCO2)C2(CCCCC2)O1 (stereo unspecified) | inconclusive: 1.5e-09 M | 
CCOc1ncccc1C(=O)Nc1ccc(-c2cn3ccsc3n2)cc1 | active: 3.8e-07 M | 
Cc1nc2sc3c(NCc4ccco4)ncnc3c2c2c1COC(C)(C)C2 | inconclusive: 1.1e-09 M | 
CN1CCN(C2=Nc3ccccc3Oc3ccc(Cl)cc32)CC1 | inconclusive: 1.6e-09 M and inconclusive: 3.9e-09 M | inactive
O=C(CN(Cc1ccc(F)cc1)C(=O)Cn1nnc2ccccc21)NCC1CCCO1 (stereo unspecified) | inactive | 
CSc1ccccc1NC(=O)c1ccccc1N(C)S(C)(=O)=O | inconclusive: 2.1e-09 M | 
CC(C)Nc1oc(-c2cccc3ccccc23)nc1C#N | active: 1.3e-06 M | 
Cn1c(=O)oc2cc(S(=O)(=O)Nc3ccc4c(c3)OCCO4)ccc21 | inconclusive: 8.6e-09 M | 
COc1ccc(CCN(C)CCC[C@@](C#N)(c2cc(OC)c(OC)c(OC)c2)C(C)C)cc1OC | inactive | 
